The results in this text go back to US20100040611A1 (Merck Sharp & Dohme, published 2010).

By UniProt entry, the sequences of proteins in these tests, tags left out. Residues count along the entry.
UniProt Q8NBP7, residues 31-692: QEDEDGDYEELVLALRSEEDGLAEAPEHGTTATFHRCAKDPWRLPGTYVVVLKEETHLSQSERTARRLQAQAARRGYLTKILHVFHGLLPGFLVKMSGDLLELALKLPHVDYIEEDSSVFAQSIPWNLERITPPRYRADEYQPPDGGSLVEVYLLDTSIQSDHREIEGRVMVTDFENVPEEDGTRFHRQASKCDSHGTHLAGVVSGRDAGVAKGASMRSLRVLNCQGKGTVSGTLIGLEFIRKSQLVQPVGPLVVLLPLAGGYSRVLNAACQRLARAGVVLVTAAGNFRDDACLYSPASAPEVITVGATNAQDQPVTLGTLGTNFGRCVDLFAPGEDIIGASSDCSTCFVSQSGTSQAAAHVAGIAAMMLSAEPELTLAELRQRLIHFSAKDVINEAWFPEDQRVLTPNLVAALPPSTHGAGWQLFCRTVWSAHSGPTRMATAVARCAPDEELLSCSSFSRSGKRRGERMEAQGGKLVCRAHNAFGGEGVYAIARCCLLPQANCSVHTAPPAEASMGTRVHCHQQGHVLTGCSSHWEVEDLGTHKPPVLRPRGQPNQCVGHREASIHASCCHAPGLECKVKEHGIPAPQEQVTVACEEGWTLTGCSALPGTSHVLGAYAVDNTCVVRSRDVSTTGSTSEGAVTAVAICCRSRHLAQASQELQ

The chains are these.
B1: 1CX1G08 (Fab, V domains shown)
VH: QVQLVESGGGLVQPGGSLRLSCAASGFTFSDYWVSWVRQAPGKGLEWVSFISYDGSSTYYADSVKGRFTISRDNSKNTLYLQMNSLRAEDTAVYYCARTYFEGVDVWGQGTLVTVSS
VL: DIELTQPPSVSVAPGQTARISCSGDNIGTYYVHWYQQKPGQAPVLVIYDDSNRPSGIPERFSGSNSGNTATLTISGTQAEDEADYYCGTWDNTSFNLVFGGGTKLTVLG
B2: 3BX5C01 (Fab, V domains shown)
VH: QVQLVQSGAEVKKPGESLKISCKGSGYSFTSYGISWVRQMPGKGLEWMGMIDPSDSFTTYSPSFQGQVTISADKSISTAYLQWSSLKASDTAMYYCARGYYFTYALQPMDHWGQGTLVTVSS
VL: DIELTQPPSVSVAPGQTARISCSGDNLRDYIVHWYQQKPGQAPVLVIYDDSNRPSGIPERFSGSNSGNTATLTISGTQAEDEADYYCGFDNGGDIDVFGGGTKLTVLG
B3: 3CX4B08 (Fab, V domains shown)
VH: QVQLVESGGGLVQPGGSLRLSCAASGFTFSNYTMNWVRQAPGKGLEWVSFISSSSSETYYADSVKGRFTISRDNSKNTLYLQMNSLRAEDTAVYYCARGYGDMVDLWGQGTLVTVSS
VL: DIELTQPPSVSVAPGQTARISCSGDSIPTYYVAWYQQKPGQAPVLVIYSDTDRPSGIPERFSGSNSGNTATLTISGTQAEDEADYYCQSFDNHGYHVFGGGTKLTVLG
B4: 3CX2A06 (Fab, V domains shown)
VH: QVQLVQSGAEVKKPGESLKISCKGSGYSFSNFWIAWVRQMPGKGLEWMGIIDPSDSWTRYSPSFQGQVTISADKSISTAYLQWSSLKASDTAMYYCARGDGQDFDNWGQGTLVTVSS
VL: DIQMTQSPSSLSASVGDRVTITCRASQNINSYLNWYQQKPGKAPKLLIYAASSLQSGVPSRFSGSGSGTDFTLTISSLQPEDFAVYYCLQNYDLPNTFGQGTKVEIKR
B5: 3CX3D02 (Fab, V domains shown)
VH: QVQLVQSGAEVKKPGESLKISCKGSGYSFTNSWIGWVRQMPGKGLEWMGIIYPSDSYTIYSPSFQGQVTISADKSISTAYLQWSSLKASDTAMYYCARGGGYYYALMDVWAQGTLVTVSS
VL: B4 VL with N28T, N30S, S31T, Y32W, V85T, N91D, Y92S, D93S, N96L

Where a chain is given by its changes, count along the chain named. No constants are given. Whether binding was seen depends on the method and setting. Some entries that bind do so weakly or less than the wild type.

This test addresses recombinant human PCSK9, V5-, His-tagged (human, UniProt Q8NBP7 31-692, limits assumed). Description: ELISA on immobilised V5-, His-tagged PCSK9, HRP anti-Fab detection. (An ELISA detects its analyte on a solid surface through an enzyme-linked reagent.)
Regarding B1, the binding entry is reported as “binds”. As for B2, the binding result is reported as “binds”. As for B3, the binding entry is on record as “binds”. On to B4, for which the binding result is on record as “binds”. For the molecule B5, the binding entry is “binds”.
